For one molecule, binding results are on record in patent US20260209345A1 (IOMX THERAPEUTICS, published 2026).

Protein sequences, listed by entry. Tags and fused reporters are not part of them. Lines headed by an entry give the natural chain unless they say otherwise; changes in a name come on top.
UniProt Q8N6C8: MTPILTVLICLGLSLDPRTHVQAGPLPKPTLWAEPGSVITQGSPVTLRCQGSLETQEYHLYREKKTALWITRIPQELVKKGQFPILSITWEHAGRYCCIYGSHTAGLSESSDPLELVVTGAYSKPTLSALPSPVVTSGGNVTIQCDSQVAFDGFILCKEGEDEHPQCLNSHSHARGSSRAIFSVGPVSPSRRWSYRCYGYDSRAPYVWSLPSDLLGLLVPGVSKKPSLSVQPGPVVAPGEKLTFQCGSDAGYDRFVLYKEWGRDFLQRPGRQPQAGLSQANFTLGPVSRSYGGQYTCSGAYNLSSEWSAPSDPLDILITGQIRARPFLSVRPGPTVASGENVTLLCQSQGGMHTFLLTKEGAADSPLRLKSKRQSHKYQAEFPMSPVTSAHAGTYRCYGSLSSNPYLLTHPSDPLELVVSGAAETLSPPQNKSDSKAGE

This experiment addresses LILRA3 on transiently transfected Expi293 cells (human) (UniProt Q8N6C8). Nature of the experiment: flow cytometry, transfected Expi293 cells.

No constants are given. Whether binding was seen depends on the method and setting. Some binding calls cover weakened binding; strength is not graded here.

B1: A-045 (antibody, V domains shown)
VH: QVQLVQSGAEVKKPGSSVKVSCKASGGTFQSQAFAWVRQAPGQGLEWMGSIIPGFSTANYAQKFQGRVTITADESTSTAYMELSSLRSEDTAVYYCAKDLGTYSSGWPYYYGMDVWGQGTTVTVSS
VL: SYELTQPPSVSVSPGQTASITCSGDKLGDKYASWYQQKPGQSPVLVIYQDSKRPSGIPERFSGSNSGNTATLTISGTQAEDEADYYCQLTHLTIYVFGGGTKLTVL
notes: tested as IgG; HC of A-010 and LC of A-036
As for B1, the binding entry is “binds”.
